Experimental data taken from the supplement of paper PMC10398353.
Counter-ions that a name gives are not always drawn. ± gives the standard deviation of the averaged measurements. The list shows a part of the results. Single values of this set are uncertain.

System: Salmonella enterica serovar Typhimurium ST313 D23580
Assay: normalized bacterial growth (OD600 20 h minus 0 h, interquartile-mean normalized) (fraction of plate interquartile mean); higher = more bacterial growth (less inhibition)
Settings: LPM (pH 5.8, low phosphate, low Mg2+), concentration: 10 µM, temperature: 37 °C

| Compound | normalized bacterial growth |
| --- | --- |
| C[C@H]1CC2C3CCC4=CC(=O)C=C[C@]4(C)[C@@]3(F)[C@@H](O)C[C@]2(C)[C@@]1(O)C(=O)COP(=O)(O)O (stereo partly specified) | 0.99 |
| CCOC(=O)CCCCCCCCCCCCC1C=CCC1 (stereo unspecified) | 1.03 |
| O=c1c(-c2ccc(O)cc2)coc2c([C@@H]3O[C@H](CO)[C@@H](O)[C@H](O)[C@H]3O)c(O)ccc12 | 1.22 |
| O=C(O)C(S)C(S)C(=O)O (stereo unspecified) | 1.2 |
| CCn1nc(C(=O)O)c(=O)c2cc3c(cc21)OCO3 [Cinoxacin] | 0.0422 |
| Cc1cc(/C=C/c2ccc3cc(N(C)C)ccc3[n+]2C)c(C)n1-c1ccccc1 | 0.797 |
| COCCOC(=O)C1=C(C)NC(C)=C(C(=O)OC/C=C/c2ccccc2)C1c1cccc([N+](=O)[O-])c1 (stereo unspecified) [Cilnidipine] | 0.595 |
| CC(C)=CCC/C(C)=C/CC/C(C)=C/CC/C(C)=C/CC/C(C)=C/CC/C(C)=C/CC/C(C)=C/CC/C(C)=C/CC/C(C)=C/CO | 1.32 |
| CCCCNc1ccc(C(=O)OCCOCCOCCOCCOCCOCCOCCOCCOCCOC)cc1 [Benzonatate] | 0.735 |
| Cc1ccc(Cl)c(Nc2ccccc2C(=O)O)c1Cl [Meclofenamic acid sodium salt monohydrate] | 1.07 |
| Cc1ccc(Cl)c(Nc2ccccc2C(=O)O)c1Cl [Meclofenamic acid sodium] | 1.29 |
| O=C(NCCO[N+](=O)[O-])c1cccnc1 [Nicorandil] | 1.02 |
| CCN1CCN(C(=O)N[C@@H](C(=O)N[C@@H]2C(=O)N3C(C(=O)O)=C(CSc4nnnn4C)CS[C@H]23)c2ccc(O)cc2)C(=O)C1=O [Cefoperazone dihydrate] | 0.973 |
| CCN1CCN(C(=O)N[C@@H](C(=O)N[C@@H]2C(=O)N3C(C(=O)O)=C(CSc4nnnn4C)CS[C@H]23)c2ccc(O)cc2)C(=O)C1=O | 1 |
| CN(C)CCOc1ccc(/C(=C(/CCCl)c2ccccc2)c2ccccc2)cc1 | 1.68 |
| CC(C(=O)O)c1ccc(N2Cc3ccccc3C2=O)cc1 (stereo unspecified) | 0.867 |
| CC1=Nc2ccc(Cl)cc2S(=O)(=O)N1 [Diazoxide] | 0.979 |
| Oc1ccc(OCc2ccccc2)cc1 [Monobenzone] | 1.16 |
| CCCn1c(=O)c2c(ncn2C)n(CCC)c1=O ["1,3-Dipropyl-7-methylxanthine"] | 1.31 |
| C[C@H]1C[C@H]2[C@@H]3CCC4=CC(=O)C=C[C@]4(C)[C@@]3(F)[C@@H](O)C[C@]2(C)[C@@]1(O)C(=O)CO [Betamethasone] | 1.085 ± 0.009 |
| CC(C)C1=CC2=CC[C@@H]3[C@](C)(CCC[C@@]3(C)C(=O)O)[C@H]2CC1 | 1.1 |
| C=CCN1CCc2c(cc(O)c(O)c2Br)[C@@H](c2ccccc2)C1 [R(+)-6-Bromo-APB hydrobromide] | 1.21 |
| Cc1cccc(C#Cc2ccccc2)n1 [6-Methyl-2-(phenylethynyl)pyridine hydrochloride] | 0.919 |
| C[C@H](O)C(=O)Nc1c(I)c(C(=O)NC(CO)CO)c(I)c(C(=O)NC(CO)CO)c1I [Iopamidol] | 1.08 |

| Compound | normalized bacterial growth |
| --- | --- |
| O=c1cc[nH]c(=S)[nH]1 | 1.02 |
| CC(C)CC(=O)N[C@H](C(=O)N[C@H](C(=O)N[C@@H](CC(C)C)[C@@H](O)CC(=O)N[C@@H](C)C(=O)N[C@@H](CC(C)C)[C@@H](O)CC(=O)O)C(C)C)C(C)C [Pepstatin A] | 1.16 |
| O=C1CC2(CCCC2)CC(=O)N1CCCCN1CCN(c2ncccn2)CC1 [Buspirone hydrochloride] | 1.11 |
| CC[C@H]1OC(=O)[C@H](C)[C@@H](O[C@H]2C[C@@](C)(OC)[C@@H](O)[C@H](C)O2)[C@H](C)[C@@H](O[C@@H]2O[C@H](C)C[C@H](N(C)C)[C@H]2O)[C@](C)(O)C[C@@H](C)[C@@H]2N[C@@H](COCCOC)O[C@H]([C@H]2C)[C@]1(C)O | 0.895 |
| Cc1cc(C)c(/C=C2\C(=O)Nc3ccccc32)[nH]1 | 0.919 |
| CC(C)/C(O)=C1/C(=O)O[C@@H](c2ccoc2)[C@]2(C)C(O)[C@@H](O)[C@@]34OC5(C)OC67CC(C)(C(O)[C@]6(O)[C@@H](O)[C@]3(O5)C12)[C@H](CC(=O)O)[C@]74C (stereo partly specified) | 0.872 |
| CC1(C)CC[C@]2(C(=O)O)CC[C@]3(C)C(=CC[C@@H]4[C@@]5(C)CC[C@H](O)[C@@](C)(CO)[C@@H]5CC[C@]43C)[C@@H]2C1 | 1.35 |
| CCn1ccnc1CC1COc2ccccc2O1 (stereo unspecified) [Imiloxan hydrochloride] | 1.07 |
| COc1c(O)cccc1O | 1.15 |
| COC(=O)CC[C@@H](C)[C@H]1CC[C@H]2[C@@H]3[C@H](O)C[C@@H]4C[C@H](O)CC[C@]4(C)[C@H]3C[C@H](O)[C@]12C | 0.983 |
| Cc1cc(CC(=O)O)n(C)c1C(=O)c1ccc(Cl)cc1 [Zomepirac sodium salt] | 1.1 |
| Cc1cc(CC(=O)O)n(C)c1C(=O)c1ccc(Cl)cc1 | 0.992 |
| NCCNC(=O)c1ncsc1-c1cccc(F)c1 [Ro 41-1049 hydrochloride] | 1.21 |
| O=C(O)C1=CCCNC1 [Guvacine hydrochloride] | 0.805 |
| CC12CCC(CC1)C(C)(C)O2 | 1.02 |
| CC(C)C[C@@H]1NC(=O)[C@H](CCCN)NC(=O)[C@H](C(C)C)NC(=O)[C@H](Cc2ccc(O)cc2)N[C@@H](CCC(=O)O)C(=O)N[C@@H](CC(N)=O)C(=O)[C@@H](Cc2ccccc2)NC(=O)[C@H](Cc2ccccc2)NC(=O)[C@@H]2CCCN2C(=O)[C@@H](Cc2ccccc2)NC1=O | 1.45 |
| C[C@H](CCC(=O)O)[C@H]1CC[C@H]2[C@@H]3CC[C@@H]4C[C@H](O)CC[C@]4(C)[C@H]3C[C@H](O)[C@]12C | 0.733 |
| COc1ccc2cc(C(C)C(=O)O)ccc2c1 (stereo unspecified) | 0.645 |
| Nc1ncnc2c1nc(Sc1ccc(Cl)cc1)n2C1OC2COP(=O)(O)O[C@@H]2[C@@H]1O (stereo partly specified) [8-(4-Chlorophenylthio)-cAMP sodium] | 1.25 |
| CCC(=O)c1c(O)cc(O)cc1O | 1.16 |
| CC1Cc2ccccc2N1NC(=O)c1ccc(Cl)c(S(N)(=O)=O)c1 (stereo unspecified) | 1.27 |
| Nc1nc2[nH]c(=O)cnc2c(=O)[nH]1 [Isoxanthopterin] | 1.1 |
| CC(C)(C)[C@]1(O)CCN2C[C@H]3c4ccccc4CCc4cccc(c43)[C@@H]2C1 [(+)-Butaclamol hydrochloride] | 0.523 |
| CC(=O)O[C@@H]1CC2C(C)(C)C(=O)C3OC3[C@]2(C)C2CC[C@@]3(C)[C@H](c4ccoc4)OC(=O)C4OC43[C@@]21C (stereo partly specified) | 0.897 |

| Compound | normalized bacterial growth |
| --- | --- |
| CO/N=C(\C(=O)N[C@@H]1C(=O)N2C(C(=O)O)=C(COC(N)=O)CS[C@H]12)c1ccco1 [Cefuroxime sodium salt] | 1.15 |
| CO/N=C(\C(=O)N[C@@H]1C(=O)N2C(C(=O)O)=C(COC(N)=O)CS[C@H]12)c1ccco1 | 0.945 |
| O=C(NCC(O)CO)c1c(I)c(C(=O)NCC(O)CO)c(I)c(N(CCO)C(=O)CO)c1I (stereo unspecified) [Ioversol] | 0.97 |
| Nc1ccc(S(=O)(=O)Nc2ccnn2-c2ccccc2)cc1 [Sulfaphenazole] | 1.03 |
| O=C1OCCN1/N=C/c1ccc([N+](=O)[O-])o1 [Furazolidone] | 1.41 |
| O=C1OCCN1/N=C/c1ccc([N+](=O)[O-])o1 | 0.252 |
| NC(=O)c1ccc([N+](=O)[O-])cc1Cl | 0.974 |
| CCOC(=O)Oc1c(OC)cc(C(=O)O[C@@H]2C[C@@H]3CN4CCc5c([nH]c6cc(OC)ccc56)[C@H]4C[C@@H]3[C@H](C(=O)OC)[C@H]2OC)cc1OC | 0.815 |
| Oc1ccc([C@@H]2CNCc3sccc32)cc1O | 1.02 |
| O=C(/C=C/C(=O)Oc1ccccc1C(=O)O)Oc1ccccc1C(=O)O | 1.27 |
| Cc1ccc([N+](=O)[O-])cc1S(=O)(=O)N(C)C | 1.01 |
| CC(C)C[C@H](NP(=O)(O)O[C@H]1O[C@H](C)[C@@H](O)[C@H](O)[C@@H]1O)C(=O)N[C@@H](Cc1c[nH]c2ccccc12)C(=O)O [Phosphoramidon disodium] | 1.11 |
| CCC(=O)O[C@]1(C(=O)CCl)[C@@H](C)C[C@H]2[C@@H]3CCC4=CC(=O)C=C[C@]4(C)[C@@]3(F)[C@@H](O)C[C@@]21C | 0.985 |
| CCC(=O)O[C@]1(C(=O)CCl)[C@@H](C)C[C@H]2[C@@H]3CCC4=CC(=O)C=C[C@]4(C)[C@@]3(F)[C@@H](O)C[C@@]21C [Clobetasol propionate] | 0.85 |
| O=C1C[C@@H](c2ccc(O)cc2)Oc2cc(O)cc(O)c21 [Naringenine] | 1.05 |
| O=C1C[C@@H](c2ccc(O)cc2)Oc2cc(O)cc(O)c21 | 1.1 |
| c1ccc2c3c([nH]c2c1)C1C2CCC(C4CCCNC42)N1CC3 (stereo unspecified) [Nitrarine dihydrochloride] | 0.47 |
| CN1CC[C@]23c4ccccc4N[C@H]1[C@]21CCN(C)[C@H]3Nc2ccccc21 [Calycanthine] | 0.954 |
| COc1cc(-c2coc3cc(O[C@@H]4O[C@H](CO)[C@@H](O)[C@H](O)[C@H]4O)c(OC)c(O)c3c2=O)cc(O)c1OC | 1.09 |
| O=c1c(-c2ccc(O)cc2)coc2cc(O[C@@H]3O[C@H](CO)[C@@H](O)[C@H](O)[C@H]3O)ccc12 | 1.08 |
| O=c1c(O)c(-c2ccccc2)oc2cc(O)ccc12 | 0.973 |
| COc1ccc(C2CNC(=O)C2)cc1OC1CCCC1 (stereo unspecified) [Rolipram] | 1.1 |
| CC(C)C[C@@H](NC(=O)[C@H](C)NC(=O)CNC(=O)[C@@H](NC=O)C(C)C)C(=O)N[C@@H](C)C(=O)N[C@@H](C(=O)N[C@H](C(=O)N[C@H](C(=O)N[C@@H](Cc1c[nH]c2ccccc12)C(=O)N[C@H](CC(C)C)C(=O)N[C@@H](Cc1c[nH]c2ccccc12)C(=O)N[C@H](CC(C)C)C(=O)N[C@@H](Cc1c[nH]c2ccccc12)C(=O)N[C@H](CC(C)C)C(=O)N[C@@H](Cc1c[nH]c2ccccc12)C(=O)NCCO)C(C)C)C(C)C)C(C)C | 1.18 |

Exported with bars between the fields: part of the list above
Compound | normalized bacterial growth
O=c1c(O)c(-c2ccccc2)oc2cc(O)ccc12 | 0.973
COc1ccc(C2CNC(=O)C2)cc1OC1CCCC1 (stereo unspecified) [Rolipram] | 1.1
CC(C)C[C@@H](NC(=O)[C@H](C)NC(=O)CNC(=O)[C@@H](NC=O)C(C)C)C(=O)N[C@@H](C)C(=O)N[C@@H](C(=O)N[C@H](C(=O)N[C@H](C(=O)N[C@@H](Cc1c[nH]c2ccccc12)C(=O)N[C@H](CC(C)C)C(=O)N[C@@H](Cc1c[nH]c2ccccc12)C(=O)N[C@H](CC(C)C)C(=O)N[C@@H](Cc1c[nH]c2ccccc12)C(=O)N[C@H](CC(C)C)C(=O)N[C@@H](Cc1c[nH]c2ccccc12)C(=O)NCCO)C(C)C)C(C)C)C(C)C | 1.18
